Drawing on PubChem BioAssay AID493014 (National Center for Advancing Translational Sciences (NCATS), 2011), this text covers AC50 for 41 molecules.

This experiment is described as follows: qHTS Assay to Find Inhibitors of Chronic Active B-Cell Receptor Signaling. The settings on record: ABC-DLBCL IkBa-CBG/CBR reporter, luminescence ratio (green luciferase fused to IkBa over red control in TMD8 lymphoma cells), 4 h. The procedure, abridged:
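Compounds up to 46 uM were incubated four hours with TMD8 cells whose green CBG68 luciferase is fused to IkappaBalpha; red CBR luminescence normalised the signal, and concentration-effect curves were fitted to fusion, red and ratio data.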
Background: Quantitative high-throughput screening tests each substance at several concentrations.

The mark [1] stands for this setting: measured here: CBR red luminescence, cell number.
Setting [2] is: measured here: IkBa-CBG green luminescence.

This is one part of the list. Shown are side measurements of this screen, not its main read-out; they come without a call. Compounds called inactive in the main read-out are mostly missing here. The note in brackets gives the kind of curve behind each potency; many fits are weak.

In general, AC50 refers to the concentration at which the activity in the assay is half-maximal.

`COc1ccc(C(=O)NC(C)C2CC3CCC2C3)cc1` (stereo not drawn): the AC50 under setting [1] is 14.1 µM [rising, partial curve, poor fit]. `Cc1ccc(NCCC(=O)c2ccc(Cl)cc2)cc1`: the AC50 under setting [1] was 0.631 µM [falling, full curve, poor fit].

As to `N#Cc1ccc(S(=O)(=O)N2CCC(C(=O)Nc3cccc(C(=O)NC4CC4)c3)CC2)cc1`, the AC50 under setting [1] was 1.3 µM [rising, full curve, poor fit]. With `CNC(=O)c1ccccc1Sc1cccc2cccc(C(=O)O)c12`, under setting [1], the AC50 is 14.1 µM [rising, single point]. Same read-out and setting: to `NC(=S)NC(=O)/C=C/c1ccccc1` belongs 8.91 µM [falling, single point]; to `C/C=C/c1ccc(OCC(=O)OCC(=O)Nc2c(C)nn(-c3ccccc3)c2C)c(OC)c1`, 0.00366 µM [rising, full curve, poor fit]; to `C/C(Cn1nnc([N+](=O)[O-])n1)=N\NC(=O)c1ccc(O)cc1`, 1.12 µM [falling, full curve]. On the same count and under the same terms, then `O=C(c1ccc2nc(-c3ccco3)c(-c3ccco3)nc2c1)N1CCN(c2ccccc2)CC1`, with 16.4 µM [falling, single point]; and `O=C(Nc1ccccc1C(F)(F)F)c1cc(-c2cccc(O)c2)on1`, with 17.8 µM [falling, partial curve, poor fit]; and `CCc1[nH]nc(C(=O)NC2CCCc3c2cnn3-c2cc(C)cc(C)c2)c1C` (stereo not drawn), with 35.5 µM [falling, single point]. On the same count and under the same terms, then `O=C1/C(=C/c2ccccc2Cl)SC(=S)N1CCCC(=O)N(CCO)c1ccccc1`, with 8.91 µM [falling, partial curve, poor fit]; and `Cc1c(C=O)c2ccccn2c1C(=O)c1ccccc1`, with 29.1 µM [rising, single point]. With `CCOC(=O)C1C(c2ccc(O)c(O)c2)NC(=S)NC1(O)C(F)(F)F` (stereo not drawn), under setting [1], the concentration at half-maximal activity (AC50) was 20.6 µM [rising, partial curve]. Turning to `CCCc1cc(=O)oc2c(C)c(OCC(=O)NC3CC(C)(C)NC(C)(C)C3)ccc12`, the AC50 under setting [1] was 12.6 µM [rising, single point]. In the case of `CCOc1ccc(N(CC(=O)NCCOc2ccccc2OC)S(=O)(=O)c2ccccc2)cc1`, the AC50 under setting [1] was 25.1 µM [falling, single point].

As for `CCCn1c(N)c(C(=O)CSc2nncs2)c(=O)[nH]c1=O`, the AC50 under setting [2] was 29.1 µM [falling, partial curve, poor fit].

Take `Cc1ccc2nc(CSc3nnc(Nc4ccccc4C)s3)cc(=O)n2c1`: the AC50 under setting [1] is 16.4 µM [falling, single point]. Still for that read-out and setting: to `COc1cc(N=c2ssnc2Cl)cc(OC)c1` belongs 2.06 µM [falling, partial curve, poor fit]. For the molecule `CCOC(=O)c1ccc(NC(=O)CCC(=O)OC)cc1`, the AC50 under setting [1] is 1.3 µM [falling, full curve]. Same read-out and setting: then `Nc1nc(-c2cccs2)c(CC(=O)O)s1`, with 22.4 µM [falling, single point]; and `O=C(c1nnc(-c2ccccc2)o1)C1CC1`, with 7.94 µM [rising, partial curve, poor fit]. As for `COc1cccc(/C=C/C(=O)c2ccc[nH]2)c1`, the AC50 under setting [1] was 23.1 µM [falling, single point]. The same measure, in the same setting: then `Clc1cc(Br)ccc1OCCN1CCOCC1`, with 11.6 µM [rising, single point]; and `CC(=O)c1ccccc1NC(=O)CSc1n[nH]c(=O)n1C1CC1`, with 25.9 µM [falling, single point]. Consider `COc1ccc(OC)c(N=c2oc3cc(O)ccc3cc2C(N)=O)c1`, for which the AC50 under setting [1] was 0.398 µM [falling, full curve, poor fit]. Take `CCc1nnc(SCC(=O)Nc2ccc(NC(C)=O)cc2)n1-n1cccc1`: the AC50 under setting [1] was 29.1 µM [rising, single point]. In the case of `Cc1ccc(S(=O)(=O)N(Cc2ccc(Cl)cc2)c2ccccc2C(=O)NCc2ccco2)cc1`, the AC50 is, setting by setting: under setting [1], 10.3 µM [falling, partial curve]; under setting [2], 23.1 µM [rising, partial curve, poor fit]. Consider `Clc1ccc(C2=NCCn3nc4ccccc4c32)cc1`, for which the AC50 under setting [1] is 20.6 µM [falling, partial curve, poor fit]. Take `CCCCNC(=O)/C=C1\Sc2ccccc2NC1=O`: the AC50 under setting [1] was 13 µM [falling, single point].

Consider `Cc1[nH]nc2oc(=O)c(CCO)c(C)c12`, for which the AC50 under setting [1] was 1.16 µM [rising, full curve, poor fit]. `CC(C)(C)OC(=O)N1CCCC(C(=O)Nc2ccc(C(=O)N3CCCC3)cc2)C1` (stereo not drawn): the AC50 under setting [1] was 10.3 µM [rising, partial curve, poor fit]. Still for that read-out and setting: to `O=C(c1ccc(-c2ccc([N+](=O)[O-])cc2)o1)N1CCCCCCC1` belongs 1.64 µM [rising, full curve, poor fit]; to `O=C(CCCN1C(=O)/C(=C/c2ccccc2Cl)SC1=S)NNC(=O)c1ccccc1`, 2.06 µM [falling, full curve]. With `CCN(CC)c1ccc(/C=N/NC(=O)Cc2cccs2)cc1`, the AC50 under setting [2] is 13 µM [falling, partial curve, poor fit]. Consider `CCOc1ccc(C(=O)N/N=C(/C)C2C(=O)c3ccccc3C2=O)cc1`, for which the AC50 under setting [1] is 8.2 µM [falling, partial curve] and the AC50 under setting [2] was 25.9 µM [falling, single point]. Consider `COc1ccccc1-n1ccn(CC(=O)Nc2ccc(C)cc2Cl)c(=O)c1=O`, for which the AC50 under setting [1] is 5.8 µM [falling, full curve, poor fit].

Turning to `COc1cc(C2C3=C(CCCC3=O)OC3=C2C(=O)CCC3)ccc1OCC(=O)Nc1ccccc1`, the AC50 under setting [1] was 20 µM [falling, partial curve, poor fit]. Same read-out and setting: then `CCOc1ccc(NC(=O)CN(C)C(=O)C2CCN(c3ncnc4sc(C)c(C)c34)CC2)cc1OCC`, with 11.2 µM [falling, partial curve]. On to `O=C(NCCCc1ccccc1)C(=O)c1c[nH]c2ccccc12`, for which, under setting [1], the AC50 is 0.794 µM [falling, full curve, poor fit]. On the same count and under the same terms, to `CCCCNC(=O)COC(=O)c1c2c(nc3ccccc13)/C(=C/c1cccs1)CC2` belongs 16.4 µM [falling, partial curve, poor fit]. Still for that read-out and setting: to `CC(=O)Nc1ccc(S(=O)(=O)Nc2nc3ccccc3nc2Nc2cccc(S(N)(=O)=O)c2)cc1` belongs 14.1 µM [rising, partial curve].
